## Primary screen of a compound library

By UniProt entry, the sequences of proteins in these tests, tags left out.
UniProt E9BF75, entry or part of it: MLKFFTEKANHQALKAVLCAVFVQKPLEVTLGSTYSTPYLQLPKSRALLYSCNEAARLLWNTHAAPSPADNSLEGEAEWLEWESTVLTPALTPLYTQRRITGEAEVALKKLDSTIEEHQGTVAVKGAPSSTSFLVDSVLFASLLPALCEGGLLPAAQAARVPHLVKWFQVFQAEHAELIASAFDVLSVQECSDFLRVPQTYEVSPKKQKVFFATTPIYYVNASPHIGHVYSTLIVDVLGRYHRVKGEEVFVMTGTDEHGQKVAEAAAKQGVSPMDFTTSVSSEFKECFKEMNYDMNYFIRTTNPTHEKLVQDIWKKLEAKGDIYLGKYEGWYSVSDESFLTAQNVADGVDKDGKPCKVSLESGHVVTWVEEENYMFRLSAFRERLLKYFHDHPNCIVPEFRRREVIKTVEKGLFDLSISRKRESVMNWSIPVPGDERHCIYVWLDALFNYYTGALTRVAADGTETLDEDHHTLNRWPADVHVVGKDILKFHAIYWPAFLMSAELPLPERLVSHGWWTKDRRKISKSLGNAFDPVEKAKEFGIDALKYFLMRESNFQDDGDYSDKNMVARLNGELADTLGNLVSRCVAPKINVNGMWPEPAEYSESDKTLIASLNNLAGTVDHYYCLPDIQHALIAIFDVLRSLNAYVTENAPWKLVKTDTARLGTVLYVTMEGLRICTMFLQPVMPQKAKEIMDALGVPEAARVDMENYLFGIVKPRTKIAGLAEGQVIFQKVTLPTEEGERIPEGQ

Measurements from “University of Dundee, Small-Polar-MMV Screening Library” (2021), ChEMBL document CHEMBL3988442.

LdMetRS: 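Primary screen of methionyl-tRNA synthetase; the read-out is not stated. Target: Methionyl-tRNA synthetase (putative), Leishmania donovani (UniProt E9BF75). The test concentration is not given. Values are per cent inhibition. About 68,000 compounds were tested under these conditions; 0.035% (about 24) showed 50% or more at least once.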
Mtb heat-shock: 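Assay on Mycobacterium tuberculosis, filed only as a heat shock assay from Cornell; the read-out is not stated. The concentration is filed as 10 mM, unlikely as a test dose, so the dose is not known. The record gives no direction; compounds that gave an IC50 in retests scored well above the rest, so higher reads as stronger inhibition. About 69,000 compounds were tested under these conditions; 1.4% (about 930) showed 50% or more at least once.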

All values are in %.
The record does not define 0% and 100%; most values in the screen are far below 50% and negative numbers occur (in some assays of this library far below -100).
Compounds were drawn at random from those tested, without regard to their results.
A dash means the value is not listed here; it may have been measured.

compound,LdMetRS,Mtb heat-shock
CN(C)C1CCN(c2cc(-c3ccccc3)nc3ccnn23)C1 (stereo not shown),15.33,-3.866
CCc1nc2n(n1)CC(NCc1cnc(N(CC)CC)s1)CC2 (stereo not shown),10.59,-18.84
Cc1ccc2c(c1C)OCC2NCc1ccc(C#N)cc1 (stereo not shown),10.51,18.5
CN(C(=O)Cn1nc(-c2ccccc2F)ccc1=O)C1CCS(=O)(=O)C1 (stereo not shown),13.64,4.738
COCC1c2c(cnn2C)CCN1Cc1cccc(C)c1.O=C(O)C(F)(F)F.O=C(O)C(F)(F)F (stereo not shown),-,-46.03
c1cc(CC2CCCNC2)nc(NCCc2cnccn2)c1 (stereo not shown),14.89,-
CC(C)=CCN1C[C@H]2CC[C@@H]1CN(C(=O)c1ccc3[nH]cnc3c1)C2,12.06,-
CC(=O)c1cc(C(=O)NC2(c3ccccc3)CCC2)n(C)c1,-6.015,-5.083
c1nc(N2CCCC(Cn3cncn3)C2)c2sccc2n1 (stereo not shown),14.81,0.2296
COCC1CC2(CCN(c3ccc(C)nn3)CC2)CN1C(C)C.O=C(O)C(F)(F)F (stereo not shown),-,-4.94
O=C(c1cccs1)N1C[C@H]2CC[C@@]3(N=C(c4ccccc4)NC3=O)[C@H]2C1,7.087,-
Cc1nc(N)sc1C(=O)N[C@H]1CN(CCO)C[C@@H]1C1CC1,-2.667,12.31
CC(C)COC(C)C(=O)NCCNC(=O)C(C)C (stereo not shown),12.9,-3.282
O=C(NCCN1CCCCCC1=O)Nc1cccnc1-n1cccn1,3.235,-7.132
Cc1cnn(CC2CCCCN2C(=O)c2ccc3c(c2)nnn3C)c1 (stereo not shown),18.64,6.512
COCC(C)NC(=O)c1cn(C(C)C)cc2c(=O)[nH]nc1-2 (stereo not shown),16.53,-3.74
CCCn1ncnc1C(C)NC(=O)C1CCN(C(C)C)CC1 (stereo not shown),9.278,2.471
COCCO[C@@H]1CCN(C(=O)c2ccc(C)o2)[C@@H]1Cc1cnn(C)c1,18.1,11.53
COC(=O)c1cccn1C1CCN(CCN2C(=O)CCC2=O)CC1,15.3,-5.36
CN1C(=O)CC(c2ccccc2)C12CCN(CC1CCOCC1)CC2.O=C(O)C(F)(F)F (stereo not shown),-,-13.45
O=C(O)CN1CCC(c2ccccc2)CC1,15.88,0.9387
COc1cccc(CCNC(=O)CN2CCCC2c2noc(C)n2)c1 (stereo not shown),14.29,15.96
c1cc(CN2CCCn3cnc(COCC4CC4)c3C2)ccn1,10.75,-
c1ccc(-c2cnc(CN(Cc3cccnc3)CC3CCCO3)o2)cc1 (stereo not shown),4.438,-11.48
O=C(COc1cccnc1)N1CCOC(C(F)(F)F)C1 (stereo not shown),17.37,4.861
Cc1ccc(C(=O)O)cc1NC(=O)C1CC=CC1,2.506,-18.29
[H][C@]12OCCC[C@]1([H])N(C(=O)c1ccccn1)C[C@H]2OCc1cccnc1,-,-5.641
Cc1nn(Cn2ccc(C(=O)N3CCCC3)n2)c(C)c1Cl,12.11,8.499
Cc1cc(N2CCC(O)CC2)nc(C2CCCN2C)n1 (stereo not shown),9.062,3.002
O=C(c1cocn1)N1CC[C@H]2OCC[C@@]2(COc2ncccc2F)C1,5.842,-
Cn1ccnc1CN1CCC2(CC(=O)N(c3ccccn3)C2)C1.O=C(O)C(F)(F)F.O=C(O)C(F)(F)F (stereo not shown),-,-3.126
c1cc(COC[C@]23COC[C@H]2CN(CC2CCC2)C3)ccn1,12.67,-
O=C(O)C(F)(F)F.O=C(O)C(F)(F)F.[H][C@@]12CN(CCOC)CC[C@]1([H])CN(Cc1cccnc1OC)C2,-,37.58
CC1CCN(CC2CCN(C(=O)c3c[nH]c4ncccc34)CC2)CC1,12.32,24.6
CN(Cc1ccncc1)Cc1cnn(-c2ccc(F)cc2)c1,12.47,-15.51
O=C(N1CCCCC1)N1CCN(CC(O)c2ccccc2)CC1 (stereo not shown),24.58,-21.19
O=C(C1=CCCCC1)N1CCO[C@H]2[C@H](Oc3ccccn3)CC[C@@H]21,6.667,-
COc1cccc(-c2cc(C(=O)NCCCn3nc(C)cc3C)[nH]n2)c1,12.15,36.61
O=C(O)C(F)(F)F.[H][C@@]12COC[C@]1([H])[C@H](OCc1csc(C)n1)CN2Cc1ccc(OC)cc1,-,-10.35
CC(C)C[C@@H]1N[C@H](C(=O)NC2CCOCC2)Cc2c[nH]c3cccc1c23,9.153,-5.174
CCC1c2ccsc2CCN1C(=O)NCc1ccc(C)nc1 (stereo not shown),15.21,-4.597
Cc1nc(CN2CCOC(c3nc(C(C)C)n[nH]3)C2)oc1C (stereo not shown),7.981,-5.053
O=C(O)C(F)(F)F.[H][C@@]12C[C@H](C(=O)N3CCCCO3)CN(C(=O)c3ccccn3)[C@]1([H])CCO2,-,-39.27
c1cc(-c2c[nH]nc2C2CCCCC2)nc(N2CCCCCC2)n1,19.17,13.04
CC(C)N(C)Cc1nnc2n1CCN(S(=O)(=O)C1CC1)CC2.O=C(O)C(F)(F)F,-,-12.93
Cc1cnn(CC2CN(CCc3ccccn3)CCO2)c1 (stereo not shown),10.6,-7.758
CC(C)c1cc(C(=O)NCCn2nc3ccccn3c2=O)n[nH]1,2.611,7.155
COCCN1CCOCC12CCN(C(=O)c1ccncc1)CC2.O=C(O)C(F)(F)F,-,-17.76
CS(=O)(=O)NCC(=O)N[C@H]1CN(c2cnccn2)C[C@@H]1C1CC1,2.481,-16.29
N[C@@H](Cc1ccccc1)c1nnc(S(=O)(=O)Cc2ccccc2)o1,1.897,-11.14
COc1ccc(CN(C)CC(O)COCc2ccccc2Cl)c(OC)c1 (stereo not shown),5.248,-
CN(C)c1nccnc1C1CCCN(c2cnccn2)C1 (stereo not shown),11.21,-8.851
Cc1cc(N(C)C)nc(N2CCCC2c2ccccn2)n1 (stereo not shown),16.51,0.5124
[H][C@@]12C[C@H](C(=O)Nc3cccnc3)CN(Cc3ccc(C)o3)[C@]1([H])CCO2,-,-32.66
COc1cccc2sc(N(C)CC(=O)NCc3nc(C)no3)nc12,14.15,2.707
COCCSCC(=O)NCc1ccnc(N(C)C)c1,1.805,2.866
COCC[C@]1(O)CCN(Cc2nnc(C)s2)C[C@H]1C,9.353,0.5866
CC(CCc1ccccc1)NC(=O)CNCCCN1CCOCC1 (stereo not shown),4.396,-
O=C(c1ccnnc1)N1C[C@@H](OCc2cccnc2)[C@H]2OCCC[C@H]21,7.372,-
c1ccc(CN2CC[C@H]3CO[C@H](CNc4ncccn4)[C@H]3C2)nc1,17.15,-
CCOC(=O)Cn1nnnc1-c1ccccc1,13.31,6.885
CCCOCC(=O)NC1CCc2nc(C)cn2C1 (stereo not shown),14.08,14.37
CC(Cc1cccc(Cl)c1)NC(=O)NCc1ncnn1C (stereo not shown),10.13,-17.5
CCC1CCCN(S(=O)(=O)c2cnc3onc(C)c3c2)C1 (stereo not shown),20.91,14.58
CC(C)n1c(=O)nc2n1C(=O)N(c1ccc(Cl)cc1)C2,14.24,4.407
O=C(O)C(F)(F)F.[H][C@@]12CCCO[C@]1([H])[C@H](NC(=O)c1cnoc1C)CN(c1ncccn1)C2,-,-4.594
Cc1ccc(S(=O)(=O)NCc2cccc(C(=O)N3CCCC3)c2)cc1F,18.58,-15.73
CSCC[C@@H](CO)n1ccnc1-c1nccn1C,16.17,-28.72
O=C(COc1ccccc1F)NCCC(O)c1ccco1 (stereo not shown),13.67,13.76
Cc1cnc(C)c(N2CCCC(CC3CC3)(C(=O)O)C2)n1 (stereo not shown),17.69,1.36
N#Cc1cccc(S(=O)(=O)NC(=O)c2csc(-c3ccco3)n2)c1,5.108,-16.62
CCOC(=O)N1CC2(CCNCC2)c2cc(Cl)ccc21.Cl,-,-1.259
Cc1cnn(CC(C)NCc2csc(-c3cccs3)n2)c1 (stereo not shown),16.91,37.01
COC(=O)[C@@H]1Cc2ncn(C)c2CN1S(=O)(=O)c1ccc(Cl)cc1,4.511,-34.21

The first 10 entries again:

compound	LdMetRS	Mtb heat-shock
CN(C)C1CCN(c2cc(-c3ccccc3)nc3ccnn23)C1 (stereo not shown)	15.33	-3.866
CCc1nc2n(n1)CC(NCc1cnc(N(CC)CC)s1)CC2 (stereo not shown)	10.59	-18.84
Cc1ccc2c(c1C)OCC2NCc1ccc(C#N)cc1 (stereo not shown)	10.51	18.5
CN(C(=O)Cn1nc(-c2ccccc2F)ccc1=O)C1CCS(=O)(=O)C1 (stereo not shown)	13.64	4.738
COCC1c2c(cnn2C)CCN1Cc1cccc(C)c1.O=C(O)C(F)(F)F.O=C(O)C(F)(F)F (stereo not shown)	-	-46.03
c1cc(CC2CCCNC2)nc(NCCc2cnccn2)c1 (stereo not shown)	14.89	-
CC(C)=CCN1C[C@H]2CC[C@@H]1CN(C(=O)c1ccc3[nH]cnc3c1)C2	12.06	-
CC(=O)c1cc(C(=O)NC2(c3ccccc3)CCC2)n(C)c1	-6.015	-5.083
c1nc(N2CCCC(Cn3cncn3)C2)c2sccc2n1 (stereo not shown)	14.81	0.2296
COCC1CC2(CCN(c3ccc(C)nn3)CC2)CN1C(C)C.O=C(O)C(F)(F)F (stereo not shown)	-	-4.94